Results from publication PMC11827857.
Residue numbers refer to the chain shown, from its start. Results are given in words; binding and its absence hold for the method and conditions named. Binding seen in cells or lysates may run through a third protein. Some entries that bind do so weakly or less than the wild type. For part of these data: Where a sequence is shown, tags or fusion partners need not be part of it.

Tests used:
[1] = target: T1, signal peptide peptidase (SPP, encoded by HM13), endogenous (human (endogenous in HEK293 T-Rex Flip In)) (UniProt Q8TCT9); assay: co-IP; endogenous SPP immunoprecipitated with anti-SPP antibody on Protein-G magnetic beads from HEK293 T-Rex Flip In cells expressing CYP51A1TM; 1% DMNG lysis buffer (50 mM Tris-HCl pH 7.5, 150 mM NaCl), 4°C; rabbit IgG as negative control; immunoblot
T1 sequence: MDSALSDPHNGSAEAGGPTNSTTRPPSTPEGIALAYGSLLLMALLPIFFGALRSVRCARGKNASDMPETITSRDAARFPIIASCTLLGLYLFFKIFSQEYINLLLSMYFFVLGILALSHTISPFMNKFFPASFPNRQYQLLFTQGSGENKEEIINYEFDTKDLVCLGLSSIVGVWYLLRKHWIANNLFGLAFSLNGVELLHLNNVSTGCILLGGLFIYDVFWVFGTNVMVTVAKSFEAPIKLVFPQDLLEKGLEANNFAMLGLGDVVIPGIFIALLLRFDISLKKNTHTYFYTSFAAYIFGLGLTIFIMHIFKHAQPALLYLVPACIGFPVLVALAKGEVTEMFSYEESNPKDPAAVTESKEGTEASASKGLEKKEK

[2] = target: T2, catalytically inactive SPP (D265A) with a C-terminal 3×FLAG tag (human) (UniProt Q8TCT9); assay: co-IP; 3xFLAG-tagged WT or D265A SPP precipitated with anti-FLAG beads from clonal SPP KO HEK293 T-Rex Flip In cells expressing CYP51A1TM; 1% DMNG lysis buffer (50 mM Tris-HCl pH 7.5, 150 mM NaCl), 4°C; empty vector as control; immunoblot
T2 sequence: T1 sequence with D265A

[3] = target: T3, WT SPP with a C-terminal 3×FLAG tag (human) (UniProt Q8TCT9); assay: as above
T3 sequence: T1 sequence

Measured: binding

B1: lanosterol demethylase CYP51A1, endogenous (enzyme, UniProt Q16850 1-509)
chain: MAAAAGMLLLGLLQAGGSVLGQAMEKVTGGNLLSMLLIACAFTLSLVYLIRLAAGHLVQLPAGVKSPPYIFSPIPFLGHAIAFGKSPIEFLENAYEKYGPVFSFTMVGKTFTYLLGSDAAALLFNSKNEDLNAEDVYSRLTTPVFGKGVAYDVPNPVFLEQKKMLKSGLNIAHFKQHVSIIEKETKEYFESWGESGEKNVFEALSELIILTASHCLHGKEIRSQLNEKVAQLYADLDGGFSHAAWLLPGWLPLPSFRRRDRAHREIKDIFYKAIQKRRQSQEKIDDILQTLLDATYKDGRPLTDDEVAGMLIGLLLAGQHTSSTTSAWMGFFLARDKTLQKKCYLEQKTVCGENLPPLTYDQLKDLNLLDRCIKETLRLRPPIMIMMRMARTPQTVAGYTIPPGHQVCVSPTVNQRLKDSWVERLDFNPDRYLQDNPASGEKFAYVPFGAGRHRCIGENFAYVQIKTIWSTMLRLYEFDLIDGYFPTVNYTTMIHTPENPVIRYKRRSK
binds: all assays above
